Values from PubChem BioAssay AID686943 (Drosophila RNAi Screening Center, 2013).

Aim: 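Knockdowns that increase or decrease active ERK after insulin receptor stimulation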 (primary screen)
Cells: Drosophila S2R+ haemocyte-like cells expressing YFP-tagged ERK (Rolled)
Knock-down reagent: long dsRNA against Drosophila genes
Treatment: insulin stimulation versus unstimulated cells; dose and duration not given
Detection: 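Per-plate z-scores of phospho-ERK immunostaining normalised to YFP-tagged ERK, measured with and without insulin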
Direction: replicate 1, z-score of dpERK with insulin and replicate 2, z-score of dpERK with insulin: higher = more active ERK per ERK-YFP after insulin
The deposit covers about 23,000 reagents; shown is an unselected part of those that have a named target and a result. 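Extra replicates exist only for a retested subset of genes; insulin dose and duration not given; both raised and lowered dpERK matter.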 Reagents against one gene are numbered here. Names joined by + are all predicted targets of the reagent. Not all columns of the deposit are shown. Reagent sequences are not shown. Not stated in the record: the amount of reagent, the time to read-out.

GluRIIE (Glutamate receptor IIE) — replicate 1, z-score of dpERK with insulin = 0.6; replicate 2, z-score of dpERK with insulin = -0.42
CR14798 (pseudo) — replicate 1, z-score of dpERK with insulin = -0.09; replicate 2, z-score of dpERK with insulin = 0.49
Ccdc58 + CG34116 — replicate 1, z-score of dpERK with insulin = 1.36; replicate 2, z-score of dpERK with insulin = 0.18
CG14742 — replicate 1, z-score of dpERK with insulin = 0.24; replicate 2, z-score of dpERK with insulin = 0.76
CG17221 — replicate 1, z-score of dpERK with insulin = -0.36; replicate 2, z-score of dpERK with insulin = 0.41
ND-B14.5B (NADH dehydrogenase (ubiquinone) B14.5 B subunit) — replicate 1, z-score of dpERK with insulin = 0.13; replicate 2, z-score of dpERK with insulin = -1.05
mspo (M-spondin) — replicate 1, z-score of dpERK with insulin = 0.5; replicate 2, z-score of dpERK with insulin = 0.03
CG1246 — replicate 1, z-score of dpERK with insulin = -0.03; replicate 2, z-score of dpERK with insulin = -0.17
CG12640 — replicate 1, z-score of dpERK with insulin = 0.16; replicate 2, z-score of dpERK with insulin = -0.63
Dp1 (Dodeca-satellite-binding protein 1) — replicate 1, z-score of dpERK with insulin = 0.52; replicate 2, z-score of dpERK with insulin = 1.04
PIG-N (Phosphatidylinositol glycan anchor biosynthesis class N) — replicate 1, z-score of dpERK with insulin = 0.33; replicate 2, z-score of dpERK with insulin = 0.57

Just “replicate 2, z-score of dpERK with insulin”, for 3 of the entries above:
ND-B14.5B (NADH dehydrogenase (ubiquinone) B14.5 B subunit): -1.05
mspo (M-spondin): 0.03
CG1246: -0.17

Further records:
Ccs (Copper chaperone for superoxide dismutase) — replicate 1, z-score of dpERK with insulin = 0.25; replicate 2, z-score of dpERK with insulin = 0.06
CG8389 #1 — replicate 1, z-score of dpERK with insulin = 0.38; replicate 2, z-score of dpERK with insulin = 0.15
CG8389 #2 — replicate 1, z-score of dpERK with insulin = 0.5; replicate 2, z-score of dpERK with insulin = 0.73
mRpL54 (mitochondrial ribosomal protein L54) — replicate 1, z-score of dpERK with insulin = 1.07; replicate 2, z-score of dpERK with insulin = 0.04
Jhbp3 (Juvenile hormone binding protein 3) — replicate 1, z-score of dpERK with insulin = 0.24; replicate 2, z-score of dpERK with insulin = 0.1
Dd (Dullard) — replicate 1, z-score of dpERK with insulin = -0.47; replicate 2, z-score of dpERK with insulin = -0.05
Uch (Ubiquitin carboxy-terminal hydrolase) — replicate 1, z-score of dpERK with insulin = -0.44; replicate 2, z-score of dpERK with insulin = 0.21
CG16865 — replicate 1, z-score of dpERK with insulin = 0.25; replicate 2, z-score of dpERK with insulin = -0.21
CG1418 — replicate 1, z-score of dpERK with insulin = 0.71; replicate 2, z-score of dpERK with insulin = 0.84
DCTN4-p62 (Dynactin 4, p62 subunit) — replicate 1, z-score of dpERK with insulin = -0.05; replicate 2, z-score of dpERK with insulin = 1.17
